Some of the results follow.
Key:
Experiment in all cases: log2 fold change, soluble protein after heating vs DMSO (PISA); higher = thermal stabilisation; K562 cells, 10 uM, 30 min; active = over 0.2 and 3.5 SD of the protein, either way, in both replicates (recomputed)
[1] = compound: COC1=CC=C(C=C1)CN2C=CC3=C2C=C(C=C3)C(=O)NO
In short: (§1)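 Soluble protein was quantified by TMTpro 16plex LC-MS/MS after channel sums were equalised. It was obtained as the supernatant after 21,000xg for 90 min from pooled aliquots of K562 cells (2×10^6 cells/mL, 10 μM compound, 30 min) heated for 3 min across 48°C-58°C and extracted in PBS with 0.5% NP-40 at 4°C. Thermal stability values are relative to control samples and come from duplicates. They are given as log2 fold changes.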

By UniProt entry, the sequences of proteins in these tests, tags left out. Where a name states a change or a piece, a line headed by the entry shows the natural chain unless it says otherwise.
UniProt O95279: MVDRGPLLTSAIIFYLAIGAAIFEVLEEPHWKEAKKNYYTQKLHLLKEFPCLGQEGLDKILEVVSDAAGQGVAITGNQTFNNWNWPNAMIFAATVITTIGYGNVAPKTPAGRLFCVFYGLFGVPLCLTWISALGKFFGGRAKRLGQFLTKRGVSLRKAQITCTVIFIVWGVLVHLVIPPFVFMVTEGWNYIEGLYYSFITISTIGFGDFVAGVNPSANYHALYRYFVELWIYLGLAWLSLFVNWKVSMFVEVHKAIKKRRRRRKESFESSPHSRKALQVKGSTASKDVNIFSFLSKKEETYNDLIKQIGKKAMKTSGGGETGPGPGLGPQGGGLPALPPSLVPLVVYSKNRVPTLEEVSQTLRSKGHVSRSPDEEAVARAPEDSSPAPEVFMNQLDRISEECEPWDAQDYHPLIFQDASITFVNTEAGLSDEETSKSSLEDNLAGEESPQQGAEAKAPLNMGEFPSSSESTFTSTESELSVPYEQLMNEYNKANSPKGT
UniProt Q9BW62: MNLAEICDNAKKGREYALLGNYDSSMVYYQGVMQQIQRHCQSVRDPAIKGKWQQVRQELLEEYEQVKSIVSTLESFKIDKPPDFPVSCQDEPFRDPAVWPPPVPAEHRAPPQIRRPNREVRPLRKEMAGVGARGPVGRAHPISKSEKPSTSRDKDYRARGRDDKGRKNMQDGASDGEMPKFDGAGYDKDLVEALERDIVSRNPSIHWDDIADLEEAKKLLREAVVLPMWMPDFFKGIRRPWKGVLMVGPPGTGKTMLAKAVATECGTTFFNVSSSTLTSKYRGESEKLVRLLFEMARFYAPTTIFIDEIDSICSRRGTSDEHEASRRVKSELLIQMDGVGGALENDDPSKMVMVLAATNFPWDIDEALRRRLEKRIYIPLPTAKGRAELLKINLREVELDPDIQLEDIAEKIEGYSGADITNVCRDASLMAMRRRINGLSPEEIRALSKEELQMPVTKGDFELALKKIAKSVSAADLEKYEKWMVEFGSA
UniProt Q96S16: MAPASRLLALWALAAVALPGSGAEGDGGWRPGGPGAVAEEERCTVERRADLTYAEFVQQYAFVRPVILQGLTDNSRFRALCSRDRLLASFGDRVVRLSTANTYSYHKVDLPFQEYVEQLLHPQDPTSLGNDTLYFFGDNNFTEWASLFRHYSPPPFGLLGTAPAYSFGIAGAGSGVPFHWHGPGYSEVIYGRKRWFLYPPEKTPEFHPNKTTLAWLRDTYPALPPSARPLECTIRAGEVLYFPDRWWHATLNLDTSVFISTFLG
UniProt O60268: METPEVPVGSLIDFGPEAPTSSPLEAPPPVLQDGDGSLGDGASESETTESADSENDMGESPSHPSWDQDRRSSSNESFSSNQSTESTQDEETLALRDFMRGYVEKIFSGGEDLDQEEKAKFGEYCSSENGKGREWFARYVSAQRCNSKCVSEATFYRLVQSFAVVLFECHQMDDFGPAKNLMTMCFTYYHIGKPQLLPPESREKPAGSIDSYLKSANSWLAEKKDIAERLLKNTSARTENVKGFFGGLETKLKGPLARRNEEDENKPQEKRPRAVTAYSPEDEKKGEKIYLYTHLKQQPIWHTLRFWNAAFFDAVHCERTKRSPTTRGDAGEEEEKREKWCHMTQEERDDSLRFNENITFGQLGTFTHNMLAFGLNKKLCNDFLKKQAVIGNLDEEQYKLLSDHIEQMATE
UniProt O15066: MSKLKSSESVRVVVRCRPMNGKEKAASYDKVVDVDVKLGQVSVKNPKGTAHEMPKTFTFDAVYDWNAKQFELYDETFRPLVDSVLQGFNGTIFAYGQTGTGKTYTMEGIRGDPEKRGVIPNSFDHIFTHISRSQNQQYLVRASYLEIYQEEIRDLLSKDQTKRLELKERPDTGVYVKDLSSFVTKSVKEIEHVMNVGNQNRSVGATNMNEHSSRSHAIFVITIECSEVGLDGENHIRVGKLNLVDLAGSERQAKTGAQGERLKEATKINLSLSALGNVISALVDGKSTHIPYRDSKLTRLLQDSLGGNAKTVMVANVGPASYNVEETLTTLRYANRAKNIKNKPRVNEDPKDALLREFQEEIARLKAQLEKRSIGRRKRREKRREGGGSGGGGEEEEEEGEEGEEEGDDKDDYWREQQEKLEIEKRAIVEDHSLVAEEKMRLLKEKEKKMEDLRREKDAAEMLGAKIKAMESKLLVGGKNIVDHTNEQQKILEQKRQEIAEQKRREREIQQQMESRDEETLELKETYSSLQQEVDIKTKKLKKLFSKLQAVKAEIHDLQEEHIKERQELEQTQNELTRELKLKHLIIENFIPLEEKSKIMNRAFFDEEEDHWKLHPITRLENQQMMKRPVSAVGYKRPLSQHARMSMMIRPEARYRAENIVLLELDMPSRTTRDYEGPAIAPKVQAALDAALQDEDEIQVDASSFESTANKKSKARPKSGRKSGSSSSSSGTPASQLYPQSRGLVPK
UniProt P33947: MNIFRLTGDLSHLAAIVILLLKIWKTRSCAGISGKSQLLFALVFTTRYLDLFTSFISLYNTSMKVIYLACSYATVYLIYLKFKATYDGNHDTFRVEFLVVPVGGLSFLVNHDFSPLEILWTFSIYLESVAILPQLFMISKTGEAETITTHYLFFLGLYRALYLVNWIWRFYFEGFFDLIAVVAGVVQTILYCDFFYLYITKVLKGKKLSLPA
UniProt Q9NS87: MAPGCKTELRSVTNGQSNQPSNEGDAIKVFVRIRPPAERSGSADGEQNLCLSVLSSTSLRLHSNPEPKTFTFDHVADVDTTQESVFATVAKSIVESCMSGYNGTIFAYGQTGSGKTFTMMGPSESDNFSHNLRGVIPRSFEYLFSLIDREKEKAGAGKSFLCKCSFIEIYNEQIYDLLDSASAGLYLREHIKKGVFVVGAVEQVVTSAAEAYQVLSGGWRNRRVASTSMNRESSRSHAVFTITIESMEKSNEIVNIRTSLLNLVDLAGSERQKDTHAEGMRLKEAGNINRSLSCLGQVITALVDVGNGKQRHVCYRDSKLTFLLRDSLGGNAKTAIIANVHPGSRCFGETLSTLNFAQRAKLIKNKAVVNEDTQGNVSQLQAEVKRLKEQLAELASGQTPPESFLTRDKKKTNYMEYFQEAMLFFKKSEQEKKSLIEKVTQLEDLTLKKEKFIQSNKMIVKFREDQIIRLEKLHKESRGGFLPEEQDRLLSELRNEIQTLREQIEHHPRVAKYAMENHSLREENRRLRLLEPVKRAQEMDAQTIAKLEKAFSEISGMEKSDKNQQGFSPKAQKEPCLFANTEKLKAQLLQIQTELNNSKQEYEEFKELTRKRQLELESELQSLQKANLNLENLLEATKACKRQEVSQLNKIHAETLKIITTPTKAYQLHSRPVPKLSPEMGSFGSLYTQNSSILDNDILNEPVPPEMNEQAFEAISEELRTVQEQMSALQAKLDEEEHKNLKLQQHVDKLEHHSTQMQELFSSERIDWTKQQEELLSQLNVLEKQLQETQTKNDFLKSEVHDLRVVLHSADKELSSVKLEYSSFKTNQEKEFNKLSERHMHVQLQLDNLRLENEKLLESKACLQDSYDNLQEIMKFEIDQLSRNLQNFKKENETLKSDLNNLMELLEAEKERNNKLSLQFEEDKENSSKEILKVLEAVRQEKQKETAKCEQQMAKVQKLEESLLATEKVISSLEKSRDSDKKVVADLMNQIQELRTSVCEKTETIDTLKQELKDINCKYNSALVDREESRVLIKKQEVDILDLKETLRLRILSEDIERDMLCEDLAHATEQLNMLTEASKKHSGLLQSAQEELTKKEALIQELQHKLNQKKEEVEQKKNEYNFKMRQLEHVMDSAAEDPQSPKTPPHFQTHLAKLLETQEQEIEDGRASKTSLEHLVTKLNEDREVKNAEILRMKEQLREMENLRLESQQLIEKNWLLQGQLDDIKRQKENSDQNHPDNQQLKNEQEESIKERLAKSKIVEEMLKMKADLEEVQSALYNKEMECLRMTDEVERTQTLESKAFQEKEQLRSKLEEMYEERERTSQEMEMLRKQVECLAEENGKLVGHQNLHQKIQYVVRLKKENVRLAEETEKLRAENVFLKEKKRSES
UniProt P17275: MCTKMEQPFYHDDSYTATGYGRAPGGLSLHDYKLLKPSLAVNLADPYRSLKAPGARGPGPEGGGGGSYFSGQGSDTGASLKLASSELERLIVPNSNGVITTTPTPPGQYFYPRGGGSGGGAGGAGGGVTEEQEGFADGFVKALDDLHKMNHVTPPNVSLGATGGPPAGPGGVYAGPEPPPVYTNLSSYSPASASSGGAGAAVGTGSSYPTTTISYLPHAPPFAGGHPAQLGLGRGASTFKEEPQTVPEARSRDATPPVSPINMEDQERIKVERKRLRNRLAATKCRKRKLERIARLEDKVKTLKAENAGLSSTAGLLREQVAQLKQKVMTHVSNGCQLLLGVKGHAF
UniProt A8MWY0: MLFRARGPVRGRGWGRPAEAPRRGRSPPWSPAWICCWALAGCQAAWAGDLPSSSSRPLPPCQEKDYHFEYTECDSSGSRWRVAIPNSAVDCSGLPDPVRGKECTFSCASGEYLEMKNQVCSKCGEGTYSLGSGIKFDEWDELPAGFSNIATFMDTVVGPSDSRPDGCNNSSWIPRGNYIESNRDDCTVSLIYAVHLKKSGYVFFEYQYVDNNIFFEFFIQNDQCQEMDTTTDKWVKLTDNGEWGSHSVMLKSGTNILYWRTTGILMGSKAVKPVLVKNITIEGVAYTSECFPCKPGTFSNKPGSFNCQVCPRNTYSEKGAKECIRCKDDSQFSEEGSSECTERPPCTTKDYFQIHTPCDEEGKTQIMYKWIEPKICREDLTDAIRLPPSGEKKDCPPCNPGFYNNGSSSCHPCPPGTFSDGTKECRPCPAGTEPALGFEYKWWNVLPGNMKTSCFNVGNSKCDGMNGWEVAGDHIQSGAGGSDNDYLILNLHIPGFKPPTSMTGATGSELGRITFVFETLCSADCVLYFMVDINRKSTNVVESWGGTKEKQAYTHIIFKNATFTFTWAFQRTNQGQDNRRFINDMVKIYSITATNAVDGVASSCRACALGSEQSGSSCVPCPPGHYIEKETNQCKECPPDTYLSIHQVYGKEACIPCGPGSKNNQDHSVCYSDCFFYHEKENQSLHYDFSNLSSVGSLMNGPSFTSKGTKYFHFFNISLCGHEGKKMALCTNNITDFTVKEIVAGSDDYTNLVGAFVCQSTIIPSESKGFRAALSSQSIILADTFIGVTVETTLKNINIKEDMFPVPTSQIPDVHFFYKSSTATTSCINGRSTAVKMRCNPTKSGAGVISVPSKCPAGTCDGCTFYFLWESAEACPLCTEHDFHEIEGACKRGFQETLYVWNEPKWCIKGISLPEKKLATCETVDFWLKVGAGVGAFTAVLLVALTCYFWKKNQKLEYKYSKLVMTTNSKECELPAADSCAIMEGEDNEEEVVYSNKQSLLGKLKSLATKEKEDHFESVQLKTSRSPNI
UniProt P01042: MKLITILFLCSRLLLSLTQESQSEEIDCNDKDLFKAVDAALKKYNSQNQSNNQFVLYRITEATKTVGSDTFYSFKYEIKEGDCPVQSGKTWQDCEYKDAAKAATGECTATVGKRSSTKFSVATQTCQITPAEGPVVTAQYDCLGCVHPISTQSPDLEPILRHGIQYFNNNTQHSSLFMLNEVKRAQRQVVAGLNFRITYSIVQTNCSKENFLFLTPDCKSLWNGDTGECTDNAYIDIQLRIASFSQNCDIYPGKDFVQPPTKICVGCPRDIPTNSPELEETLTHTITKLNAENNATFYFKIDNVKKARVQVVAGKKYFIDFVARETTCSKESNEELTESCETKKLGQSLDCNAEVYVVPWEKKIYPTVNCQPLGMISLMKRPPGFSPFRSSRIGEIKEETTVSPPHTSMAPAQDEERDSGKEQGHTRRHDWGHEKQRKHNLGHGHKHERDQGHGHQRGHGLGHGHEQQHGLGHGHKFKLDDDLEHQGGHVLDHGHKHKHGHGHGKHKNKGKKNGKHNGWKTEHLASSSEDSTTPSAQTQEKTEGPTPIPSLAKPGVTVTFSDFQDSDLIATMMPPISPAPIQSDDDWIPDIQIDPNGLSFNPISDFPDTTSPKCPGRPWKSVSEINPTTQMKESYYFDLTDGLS
UniProt Q8N6L1: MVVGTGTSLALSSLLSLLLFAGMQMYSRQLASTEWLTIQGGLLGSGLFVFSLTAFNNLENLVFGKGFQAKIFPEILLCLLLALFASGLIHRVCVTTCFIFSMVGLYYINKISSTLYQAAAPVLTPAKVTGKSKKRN
UniProt O15554, whole entry, looked up: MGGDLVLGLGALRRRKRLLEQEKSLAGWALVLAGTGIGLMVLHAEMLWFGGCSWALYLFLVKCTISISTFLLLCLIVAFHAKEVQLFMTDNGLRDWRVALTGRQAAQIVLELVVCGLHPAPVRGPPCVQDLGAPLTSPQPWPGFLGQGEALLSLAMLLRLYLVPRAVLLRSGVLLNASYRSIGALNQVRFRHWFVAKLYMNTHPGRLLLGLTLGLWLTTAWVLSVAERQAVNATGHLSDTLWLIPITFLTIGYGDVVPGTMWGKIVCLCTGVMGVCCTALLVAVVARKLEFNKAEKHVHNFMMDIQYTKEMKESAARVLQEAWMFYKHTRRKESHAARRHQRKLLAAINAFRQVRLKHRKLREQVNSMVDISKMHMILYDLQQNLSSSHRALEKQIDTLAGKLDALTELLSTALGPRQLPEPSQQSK

filanesib = compound: CON(C)C(=O)N1N=C(c2cc(F)ccc2F)S[C@@]1(CCCN)c1ccccc1 [filanesib]
In short: as §1

zotarolimus = compound: CO[C@H]1C[C@@H]2CC[C@@H](C)[C@@](O)(O2)C(=O)C(=O)N2CCCC[C@H]2C(=O)O[C@H]([C@H](C)C[C@@H]2CC[C@H](n3cnnn3)[C@H](OC)C2)CC(=O)[C@H](C)/C=C(\C)[C@@H](O)[C@@H](OC)C(=O)[C@H](C)C[C@H](C)/C=C/C=C/C=C/1C [zotarolimus]
In short: as §1

alisertib = compound: COc1cc(Nc2ncc3c(n2)-c2ccc(Cl)cc2C(c2c(F)cccc2OC)=NC3)ccc1C(=O)O [alisertib]
In short: as §1

[2] = compound: COc1cc2nc(-c3cc(F)ccc3O)nc(N[C@@H]3CNC[C@H]3C(C)(C)O)c2cc1OC
In short: as §1

gefitinib = compound: COc1cc2ncnc(Nc3ccc(F)c(Cl)c3)c2cc1OCCCN1CCOCC1 [gefitinib]
In short: as §1

[3] = compound: COc1cccc2cc(-c3nc([C@H]4CC[C@H](C(=O)O)CC4)n4ncnc(N)c34)[nH]c12
In short: as §1

lapatinib = compound: CS(=O)(=O)CCNCc1ccc(-c2ccc3ncnc(Nc4ccc(OCc5cccc(F)c5)c(Cl)c4)c3c2)o1 [lapatinib]
In short: as §1

[4] = compound: CS(=O)(=O)c1ccc(-c2cnc(N)c(C(=O)Nc3ccccc3)n2)cc1
In short: as §1

crizotinib = compound: C[C@@H](Oc1cc(-c2cnn(C3CCNCC3)c2)cnc1N)c1c(Cl)ccc(F)c1Cl [crizotinib]
In short: as §1

[5] = compound: C[C@@H]1COCCN1C2=NC(=NC(=C2)C3(CC3)S(=O)(=O)C)C4=C5C=CNC5=CC=C4
In short: as §1

[6] = compound: C[C@H](C1=CC=C(C=C1)C(=O)NC2=C3C=CNC3=NC=C2)N
In short: as §1

duvelisib = compound: C[C@H](Nc1ncnc2nc[nH]c12)c1cc2cccc(Cl)c2c(=O)n1-c1ccccc1 [duvelisib]
In short: as §1

[7] = compound: Cc1cc(SCc2sc(-c3ccc(C(F)(F)F)cc3)nc2C)ccc1OCC(=O)O
In short: as §1

doramapimod = compound: Cc1ccc(-n2nc(C(C)(C)C)cc2NC(=O)Nc2ccc(OCCN3CCOCC3)c3ccccc23)cc1 [doramapimod]
In short: as §1

pictilisib = compound: CS(=O)(=O)N1CCN(Cc2cc3nc(-c4cccc5[nH]ncc45)nc(N4CCOCC4)c3s2)CC1 [pictilisib]
In short: as §1

gandotinib = compound: Cc1cc(Nc2cc(CN3CCOCC3)c3nc(C)c(Cc4ccc(Cl)cc4F)n3n2)n[nH]1 [gandotinib]
In short: as §1

idasanutlin = compound: COc1cc(C(=O)O)ccc1NC(=O)[C@@H]1N[C@@H](CC(C)(C)C)[C@](C#N)(c2ccc(Cl)cc2F)[C@H]1c1cccc(Cl)c1F [idasanutlin]
In short: as §1

tozasertib = compound: Cc1cc(Nc2cc(N3CCN(C)CC3)nc(Sc3ccc(NC(=O)C4CC4)cc3)n2)n[nH]1 [tozasertib]
In short: as §1

ispinesib = compound: Cc1ccc(C(=O)N(CCCN)[C@@H](c2nc3cc(Cl)ccc3c(=O)n2Cc2ccccc2)C(C)C)cc1 [ispinesib]
In short: as §1

Measured: log2 fold change

KIAA0930 isoform 2 (UniProt Q6ICG6)
inactive: [1] -0.014 | filanesib 0.064 | zotarolimus -0.242 | alisertib 0.109 | [2] 0.01 | gefitinib -0.002 | [3] 0.019 | lapatinib 0.082 | [4] -0.126 | crizotinib 0.079 | [5] 0.026 | [6] 0.162 | duvelisib -0.121 | [7] -0.091 | doramapimod -0.024

KCNK5 (UniProt O95279)
inactive: [1] 0.059 | filanesib -0.117 | zotarolimus -0.044 | alisertib -0.408 | [2] -0.541 | [3] 0.193 | lapatinib -0.227 | pictilisib -0.007 | [4] 0.087 | crizotinib -0.164 | [5] 0.339 | [6] -0.013 | gandotinib -0.03 | [7] 0.242 | doramapimod -0.165

JTB (UniProt O76095)
inactive: [1] 0.147 | filanesib 0.08 | zotarolimus -0.129 | idasanutlin -0.245 | alisertib 0.09 | [2] 0.044 | gefitinib 0.007 | [3] 0.015 | lapatinib -0.011 | [4] -0.012 | crizotinib -0.016 | [5] -0.012 | [6] 0.14 | duvelisib -0.013 | tozasertib 0.021 | [7] -0.065 | doramapimod -0.047

KATNAL1 (UniProt Q9BW62)
inactive: [1] -0.035 | filanesib 0.059 | zotarolimus -0.009 | idasanutlin 0.046 | [2] -0.14 | lapatinib -0.072 | [4] -0.353 | crizotinib -0.147 | [5] 0.048 | [6] 0.112 | duvelisib 0.09 | tozasertib 0.12 | [7] -0.182 | doramapimod -0.095

Two successive entries from above, for reference:
JTB (UniProt O76095)
inactive: [1] 0.147 | filanesib 0.08 | zotarolimus -0.129 | idasanutlin -0.245 | alisertib 0.09 | [2] 0.044 | gefitinib 0.007 | [3] 0.015 | lapatinib -0.011 | [4] -0.012 | crizotinib -0.016 | [5] -0.012 | [6] 0.14 | duvelisib -0.013 | tozasertib 0.021 | [7] -0.065 | doramapimod -0.047

KATNAL1 (UniProt Q9BW62)
inactive: [1] -0.035 | filanesib 0.059 | zotarolimus -0.009 | idasanutlin 0.046 | [2] -0.14 | lapatinib -0.072 | [4] -0.353 | crizotinib -0.147 | [5] 0.048 | [6] 0.112 | duvelisib 0.09 | tozasertib 0.12 | [7] -0.182 | doramapimod -0.095

Next part.

IWS1 (UniProt Q96ST2)
inactive: [1] 0.007 | filanesib -0.013 | zotarolimus -0.006 | idasanutlin -0.105 | alisertib -0.068 | [2] 0.124 | gefitinib -0.055 | [3] 0.055 | lapatinib -0.077 | pictilisib -0.011 | [4] 0.077 | crizotinib 0.146 | [5] 0.132 | [6] 0.119 | gandotinib 0.108 | [7] 0.062 | doramapimod -0.134 | ispinesib 0.061

JMJD8 (UniProt Q96S16)
inactive: [1] 0.053 | filanesib 0.001 | idasanutlin -0.047 | alisertib 0.271 | [2] -0.123 | gefitinib 0.081 | [3] -0.019 | lapatinib 0.045 | [4] -0.173 | crizotinib 0.226 | duvelisib 0.066 | [7] 0.228 | doramapimod 0.041 | ispinesib 0.109

KIAA0513 (UniProt O60268)
inactive: [1] -0.021 | filanesib 0.028 | zotarolimus 0.032 | idasanutlin -0.017 | alisertib 0.157 | [2] -0.035 | gefitinib -0.331 | [3] 0.168 | lapatinib 0.011 | pictilisib 0.104 | [4] 0.133 | crizotinib -0.04 | [6] 0.001 | gandotinib 0.167 | tozasertib 0.036 | doramapimod -0.051

KIF13B (UniProt Q9NQT8)
inactive: [1] -0.09 | filanesib 0.009 | zotarolimus 0.017 | idasanutlin -0.077 | alisertib -0.156 | [2] -0.049 | [3] -0.139 | lapatinib 0.022 | pictilisib 0.072 | [4] 0.04 | crizotinib -0.049 | [5] -0.012 | [6] -0.069 | duvelisib 0.133 | gandotinib 0.034 | tozasertib -0.086 | [7] 0.037 | doramapimod 0.059

KIF3B (UniProt O15066)
inactive: [1] -0.071 | filanesib 0.04 | zotarolimus 0.027 | idasanutlin -0.252 | alisertib -0.071 | [2] 0.164 | [3] 0.04 | lapatinib 0.035 | pictilisib -0.161 | [4] -0.004 | crizotinib -0.018 | [5] 0.054 | [6] 0.03 | gandotinib -0.199 | [7] -0.023 | doramapimod 0.076 | ispinesib 0.04

KDM2A (UniProt Q9Y2K7)
inactive: [1] -0.226 | filanesib -0.093 | zotarolimus -0.065 | alisertib -0.13 | [2] 0.025 | gefitinib 0.05 | [3] 0.098 | lapatinib -0.072 | pictilisib 0.05 | [4] 0.102 | crizotinib -0.103 | [5] 0.171 | [6] -0.068 | duvelisib -0.032 | gandotinib -0.149 | tozasertib -0.012 | [7] 0.025 | doramapimod 0.003 | ispinesib 0.012

KDELR2 (UniProt P33947)
inactive: [1] -0.155 | filanesib -0.105 | zotarolimus 0.035 | idasanutlin -0.162 | alisertib -0.014 | [2] -0.136 | gefitinib -0.064 | [3] 0.048 | lapatinib -0.127 | pictilisib -0.013 | [4] 0.056 | crizotinib 0.035 | [5] 0.205 | [6] -0.096 | gandotinib -0.107 | [7] -0.007 | doramapimod 0.016 | ispinesib 0.016

KIF15 (UniProt Q9NS87)
inactive: [1] 0.058 | filanesib 0.263 | zotarolimus 0.118 | idasanutlin 0.308 | alisertib 0.805 | [3] -0.087 | pictilisib -0.162 | [4] 0.339 | crizotinib -0.015 | [5] -0.338 | [6] 0.359 | duvelisib -0.167 | gandotinib 0.074 | tozasertib 0.173 | [7] 0.105 | doramapimod 0.054 | ispinesib -0.113

JUNB (UniProt P17275)
inactive: [1] -0.1 | filanesib 0.177 | zotarolimus -0.265 | idasanutlin 0.075 | alisertib -0.152 | gefitinib 0.147 | [3] -0.021 | pictilisib -0.034 | [4] 0.024 | crizotinib 0.201 | [5] -0.106 | [6] 0.232 | gandotinib 0.012 | tozasertib -0.121 | doramapimod 0.206 | ispinesib -0.351

KIAA1324L (UniProt A8MWY0)
inactive: [1] -0.03 | filanesib 0.091 | zotarolimus -0.09 | idasanutlin 0.07 | alisertib -0.013 | [2] 0.028 | gefitinib 0.109 | [3] 0.049 | lapatinib -0.026 | pictilisib 0.005 | [4] 0.081 | crizotinib -0.125 | [5] 0.06 | [6] 0.062 | gandotinib 0.076 | [7] -0.057 | doramapimod 0.051 | ispinesib -0.124

KNG1 (UniProt P01042)
inactive: [1] -0.152 | filanesib 0.062 | zotarolimus -0.142 | idasanutlin 0.129 | alisertib -0.128 | [2] -0.09 | gefitinib 0.138 | [3] 0.326 | lapatinib -0.024 | pictilisib 0.013 | [4] -0.107 | crizotinib 0.028 | [6] 0.031 | duvelisib -0.123 | gandotinib 0.066 | tozasertib -0.061 | [7] -0.2 | doramapimod 0.086 | ispinesib -0.008

KEAP1 (UniProt Q14145)
inactive: [1] 0.005 | filanesib 0.028 | zotarolimus 0.036 | idasanutlin -0.019 | alisertib -0.018 | [2] 0.005 | gefitinib 0.03 | [3] -0.066 | lapatinib 0.007 | pictilisib -0.02 | [4] 0.011 | crizotinib -0.077 | [5] -0.095 | [6] 0.111 | gandotinib -0.176 | [7] 0.049 | doramapimod 0.089 | ispinesib -0.102

KRTCAP2 isoform 2 (UniProt Q8N6L1)
inactive: [1] -0.039 | filanesib -0.065 | zotarolimus 0 | idasanutlin -0.169 | alisertib -0.033 | gefitinib -0.007 | [3] 0.043 | pictilisib 0.112 | [4] -0.013 | crizotinib 0.032 | [5] -0.008 | [6] -0.287 | duvelisib -0.137 | gandotinib -0.039 | tozasertib -0.135 | [7] -0.037 | doramapimod 0.017 | ispinesib -0.229

JAG2 (UniProt Q9Y219)
inactive: [1] -0.017 | filanesib 0.005 | zotarolimus 0.017 | idasanutlin 0.01 | [2] 0.11 | gefitinib 0.116 | lapatinib 0.022 | [4] -0.009 | crizotinib 0.02 | [5] -0.145 | [6] -0.104 | duvelisib 0.009 | tozasertib -0.004 | [7] 0.022 | doramapimod 0.037 | ispinesib -0.041

KCNN4 (UniProt O15554)
inactive: [1] -0.153 | filanesib -0.176 | zotarolimus 0.128 | idasanutlin -0.036 | alisertib 0.071 | [2] -0.189 | gefitinib -0.125 | [3] 0.121 | lapatinib 0.129 | [4] -0.05 | crizotinib -0.105 | [6] 0.045 | duvelisib 0.026 | tozasertib -0.051 | [7] -0.029 | doramapimod 0.029 | ispinesib -0.109
